Measured values: patent US20040014072, “Novel dna synthase” (published 2004)
For part of these data: The exact form of at least one protein or probe is not confirmed. For part of these data: Negatives hold for the conditions tested. For part of these data: Where a protein sequence is shown, tags need not be part of it.

Protein sequences, listed by entry. Tags and fused reporters are not part of them. Lines headed by an entry give the natural chain unless they say otherwise; changes in a name come on top.
UniProt Q9P9H1: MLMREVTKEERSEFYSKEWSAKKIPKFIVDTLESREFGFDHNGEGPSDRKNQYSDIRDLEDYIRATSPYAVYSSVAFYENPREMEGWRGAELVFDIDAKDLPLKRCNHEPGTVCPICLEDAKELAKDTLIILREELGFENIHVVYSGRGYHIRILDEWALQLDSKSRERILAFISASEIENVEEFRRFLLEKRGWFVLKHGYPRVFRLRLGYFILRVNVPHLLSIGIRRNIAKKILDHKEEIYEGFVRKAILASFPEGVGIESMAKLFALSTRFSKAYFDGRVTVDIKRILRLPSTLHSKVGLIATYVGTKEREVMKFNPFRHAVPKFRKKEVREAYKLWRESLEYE

Columns and labels:
Test in all cases: EMSA
[1] = target: p41 (Pyrococcus furiosus) (UniProt Q9P9H1); conditions: no band shift for p41 alone, data not shown; purified recombinant protein; protein details: N-terminal His6; label: 5'-32P
[2] = target: T1, p46 (Pyrococcus furiosus) (UniProt Q8U4H7); conditions: no band shift for p46 alone, data not shown; purified recombinant protein; label: 5'-32P
T1 sequence: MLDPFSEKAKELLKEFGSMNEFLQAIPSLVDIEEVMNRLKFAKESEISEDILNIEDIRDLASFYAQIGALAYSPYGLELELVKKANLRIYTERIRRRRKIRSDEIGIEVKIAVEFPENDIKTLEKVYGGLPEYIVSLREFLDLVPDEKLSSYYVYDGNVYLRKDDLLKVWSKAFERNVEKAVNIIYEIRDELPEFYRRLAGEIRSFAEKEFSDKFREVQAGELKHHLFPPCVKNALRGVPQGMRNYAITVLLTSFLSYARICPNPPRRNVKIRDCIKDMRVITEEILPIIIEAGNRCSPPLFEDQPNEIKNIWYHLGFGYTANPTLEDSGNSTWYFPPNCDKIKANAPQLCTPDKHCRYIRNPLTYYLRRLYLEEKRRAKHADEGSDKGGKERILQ

[3] = system: p41-p46 complex (DNA primase/polymerase) (Pyrococcus furiosus); conditions: 50 mM Tris-Cl pH 8.0, 10 mM MgCl2, 20 mM KCl, 55 C; purified recombinant protein; protein details: N-terminal His6 on p41, p46 untagged; label: 5'-32P

AGCTACCATGCCTGCACGAATTAAGCAATTCGTAATCATGGTCATAGCT [49-mer annealed to complementary 17-mer]
binding result [1]: no binding
binding result [2]: no binding
binding result [3]: binds
